The subject of one series is eADF4(C16) particles. Briefly: Drug loading of eADF4(C16) particles (residual drug in supernatant by UV-Vis). It counts as physicochemical. The settings on record: 21 nmol silk protein, 0.21 μmol model drug, 10 min, room temperature; for Experimental drug content: wt drug/wt spider silk protein particles.
Series [1] deals with C16 spider silk particles. Briefly: Loading of C16 spider silk particles with lysozyme (Micro BCA of supernatant). The conditions noted are these: 30% w/w-ratio, pH 7.0. It counts as physicochemical.

The results in this text go back to US9233067B2, “Silk particles for controlled and sustained delivery of compounds” (Amsilk GmbH, priority 2009, dated 2016).

Counter-ions that a name gives are not always drawn.

For `CN[C@@H](C)[C@H](O)c1ccccc1` [Ephedrine*HCl, Ephedrine], in the series on eADF4(C16) particles, the “Encapsulation efficiency (loading efficiency)” value (from here on “Encapsulation efficiency”) is 20.7% and the Experimental drug content came out at 0.88 w/w %.

With `CCOc1ccc2nc3cc(N)ccc3c(N)c2c1` [Ethacridine lactate], the “Encapsulation efficiency” value in the series with eADF4(C16) particles (listed as Ethacridine lactat) is 98.2%; in the series with eADF4(C16) particles (listed as ethacridine lactate), “more than 98%”. Also, in the series on eADF4(C16) particles, the Experimental drug content was 7.07 w/w %.

With `COc1ccc(Cc2nccc3cc(OC)c(OC)cc23)cc1OC` [Papaverine*HCl, Papaverine], in the series with eADF4(C16) particles, the “Encapsulation efficiency” value is recorded as 47.0% and the Experimental drug content stood at 3.71 w/w %.

Regarding `CCN(CC)CCOC(=O)c1ccc(N)cc1` [Procaine*HCl, Procaine], in the series on eADF4(C16) particles, the “Encapsulation efficiency” value was determined as 38.0% and the Experimental drug content is on record as 2.16 w/w %.

The molecule `CC(C)NCC(O)COc1cccc2ccccc12` (centres unmarked) [Propranolol*HCl, Propranolol] showed an Experimental drug content in the series on eADF4(C16) particles of 2.78 w/w %.

Turning to `CCCCNc1ccc(C(=O)OCCN(C)C)cc1` [Tetracaine*HCl, Tetracaine], in the series with eADF4(C16) particles, the “Encapsulation efficiency” value was 53.0% and the Experimental drug content is 3.34 w/w %.

For “Lysozyme: protein compound with an isoelectric point of 11.35 and a molecular weight of 14.3 kDa”, the loading in series [1] (30 mM ionic strength) turned out to be 28%; in series [1] (60 mM ionic strength) it was 24%; in series [1] (100 mM ionic strength), 20%.

Turning to Methyl violet, in the series on eADF4(C16) particles, the “Encapsulation efficiency” value was 98.1% and the Experimental drug content is reported as 8.37 w/w %.
